Experimental data from paper doi:10.1101/2021.03.31.437839.
Like-named read-outs stand apart in the source and are kept apart here. Results are given in words; binding and its absence hold for the method and conditions named. In cells and extracts the contact can be indirect. A result given as binding can be weak or reduced; the word gives no strength.

Tests used:
Experiment in all cases: co-IP
[1] = biological target: HA-JICD1 (JAG1 intracellular domain) (human) (UniProt P78504)
[2] = biological target: HA-JICD1 (JAG1 intracellular domain) (human) (UniProt P78504); remark: listed apart in the source
[3] = biological target: HA-JICD1 (JAG1 intracellular domain) (human) (UniProt P78504); remark: listed apart in the source

Measured: binding

FLAG-DDX17 (DEAD-Box Helicase 17) (from UniProt Q92841 1-729)
binds: [1] | [2] | [3]
